Source: US7834013B2, “Aminophenylcyclopropyl carboxylic acids and derivatives as agonists to GPR40” (GlaxoSmithKline LLC, priority 2003, dated 2010)
The match of structure and compound is tentative.

Amino acid sequences for entries named in this document (tags omitted).
UniProt O14842, whole entry: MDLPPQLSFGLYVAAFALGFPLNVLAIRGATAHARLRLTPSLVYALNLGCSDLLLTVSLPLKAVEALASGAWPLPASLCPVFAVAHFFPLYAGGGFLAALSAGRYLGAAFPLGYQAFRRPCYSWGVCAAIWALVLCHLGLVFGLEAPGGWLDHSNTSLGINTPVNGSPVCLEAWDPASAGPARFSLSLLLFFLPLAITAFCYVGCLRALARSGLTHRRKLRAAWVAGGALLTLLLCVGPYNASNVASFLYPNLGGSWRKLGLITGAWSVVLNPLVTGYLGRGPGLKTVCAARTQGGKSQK

Biological target: GPR40 (Homo sapiens, UniProt O14842)
Experiment: GPR40 SAR Primary Assay (Elk-1/Gal4-luc+ reporter, luciferase activity)
Settings: Table 1, compounds made on Wang resin; assay not given, taken as GPR40 primary assay
Experimental: An existing stable GPR40 Elk-1/Gal4-luc^+ CHO cell line generated by electroporation and functional cloning was used. Cells were maintained in a humidified incubator at 37° C./5% CO2 in complete media containing DMEM/F12 (Gibco, #11039-021), 5% FBS (Gibco, #16140-071) and 1% Glutamine (Gibco, #25030-081). Cell maintenance passages were made at 1:40 dilution every 3-4 days. Forty eight hours prior to assay, 15e6 cells were added to 200 ml of complete media then seeded into a 1200 cm^2-cell factory and returned to a humidified incubator at 37° C./5% CO2. 20 hours prior to assay, the growth media was removed and replaced with 200 ml of serum-free DMEM/F12 to quiesce background activity. At the time of assay, cells were harvested using non-enzymatic cell dissociation solution (Sigma, #C-5914), washed and counted. The 20 hour starve media was collected and used as condition media for cell assay plating. Cells were plated at a concentration of 10,000 cells/well in a total well volume of […] in black 96-well clear bottom polystyrene plates (CoStar, #3904). Test compounds were prepared as serial dilutions in 100% DMSO, then 1 ul was delivered to each well resulting in a final concentration of 1% DMSO. […] Luciferase activity was measured on a Packard TopCount™ microplate scintillation counter using 2 seconds per well count time. […]
A percent max response and pEC50 were recorded for each compound. […]

| Structure (SMILES) | pEC50 |
| --- | --- |
| O=C(O)C1CC1c1ccc(NCc2ccc(-c3ccccc3)cc2)cc1 (centres unmarked) | 7.5 |
| O=C(O)C1CC1c1ccc(NCc2cccc(Oc3ccccc3)c2)cc1 (centres unmarked) | 7.4 |
